This is an account of results in article PMC9057631.

Chains of the proteins cited; added tags and fusions are not shown.
UniProt P40763: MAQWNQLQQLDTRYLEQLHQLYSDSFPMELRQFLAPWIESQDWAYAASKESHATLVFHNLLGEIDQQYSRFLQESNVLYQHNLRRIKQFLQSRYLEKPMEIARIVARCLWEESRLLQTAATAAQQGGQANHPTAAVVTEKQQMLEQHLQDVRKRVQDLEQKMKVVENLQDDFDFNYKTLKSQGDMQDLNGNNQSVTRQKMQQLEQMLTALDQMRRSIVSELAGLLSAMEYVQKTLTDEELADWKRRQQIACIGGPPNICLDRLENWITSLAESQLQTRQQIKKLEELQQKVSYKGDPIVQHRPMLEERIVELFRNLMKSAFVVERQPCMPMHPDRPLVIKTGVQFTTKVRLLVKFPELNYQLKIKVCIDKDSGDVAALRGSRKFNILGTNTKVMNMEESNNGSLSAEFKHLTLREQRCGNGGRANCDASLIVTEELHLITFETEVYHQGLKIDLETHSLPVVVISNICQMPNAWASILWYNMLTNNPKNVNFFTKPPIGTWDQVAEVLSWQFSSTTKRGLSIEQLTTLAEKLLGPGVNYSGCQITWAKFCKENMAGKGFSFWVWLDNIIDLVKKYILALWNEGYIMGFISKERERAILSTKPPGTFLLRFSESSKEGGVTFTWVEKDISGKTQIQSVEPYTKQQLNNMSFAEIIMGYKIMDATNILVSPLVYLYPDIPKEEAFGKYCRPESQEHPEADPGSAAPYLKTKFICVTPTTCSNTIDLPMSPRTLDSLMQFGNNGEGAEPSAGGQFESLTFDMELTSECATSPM
UniProt Q13887: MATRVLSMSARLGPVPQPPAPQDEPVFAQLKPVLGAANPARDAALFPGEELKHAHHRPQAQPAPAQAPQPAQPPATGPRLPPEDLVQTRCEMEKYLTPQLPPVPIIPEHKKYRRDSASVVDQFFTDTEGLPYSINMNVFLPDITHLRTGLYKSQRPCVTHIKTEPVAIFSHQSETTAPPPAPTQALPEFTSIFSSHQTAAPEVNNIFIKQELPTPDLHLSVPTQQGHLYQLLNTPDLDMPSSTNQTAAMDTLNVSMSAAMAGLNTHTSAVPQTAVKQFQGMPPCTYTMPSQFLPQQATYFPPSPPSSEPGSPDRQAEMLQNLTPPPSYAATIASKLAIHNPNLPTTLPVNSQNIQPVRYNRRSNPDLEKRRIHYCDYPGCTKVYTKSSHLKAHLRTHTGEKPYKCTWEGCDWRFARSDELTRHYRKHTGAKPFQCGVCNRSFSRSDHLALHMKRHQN

In test [1] the target is phosphorylated STAT3 (p-STAT3), endogenous in C2BBE^Ctrl cells (human (endogenous in Caco-2BBE)) (UniProt P40763). The experiment in a line: co-IP; endogenous proteins in C2BBE^Ctrl cells after rIL-22 (100 ng/mL, 1 hour); Active Motif Nuclear Complex Co-IP kit; precipitation with p-STAT3 antibody or rabbit anti-KLF5 antibody, Western blot. In general terms: Immunoblotting shows a protein as a band on a membrane.

Test [2] concerns the target HA-tagged human KLF5 (HA-hKLF5) (human) (UniProt Q13887). The experiment in a line: co-IP; HEK293T cells transfected with HA-hKLF5, rIL-22 (100 ng/mL, 1 hour); Active Motif Nuclear Complex Co-IP kit; precipitation with mouse anti-HA antibody, Western blot for p-STAT3.
Test [3] concerns the target Krüppel-like factor 5 (KLF5), endogenous in C2BBE^Ctrl cells (human (endogenous in Caco-2BBE)) (UniProt Q13887). As to the kind of experiment: co-IP; endogenous proteins in C2BBE^Ctrl cells after rIL-22 (100 ng/mL, 1 hour); Active Motif Nuclear Complex Co-IP kit; precipitation with p-STAT3 antibody or rabbit anti-KLF5 antibody, Western blot.

No constants are given. Whether binding was seen depends on the method and setting. Binding seen in cells or lysates may run through a third protein. Some results given as binding are weak or reduced against the parent protein; the word gives no strength.

Turning to “Krüppel-like factor 5 (KLF5), endogenous in C2BBE^Ctrl cells (from UniProt Q13887 1-457)”, in test [1], the binding entry is recorded as “binds”.

As for “phosphorylated STAT3 (p-STAT3), endogenous in HEK293T cells (from UniProt P40763 1-770)”, in test [2], the binding entry was “binds”.

As to “phosphorylated STAT3 (p-STAT3), endogenous in C2BBE^Ctrl cells (from UniProt P40763 1-770)”, the binding result in test [3] is reported as “binds”.
